Experimental data published in the supplement of paper PMC8728848.
The list shows a part of the results.

Assays:
Assay in all cases: glycan array binding signal (z-score within array); higher = stronger binding
Conditions in all cases: glycan notation: IUPAC condensed, linker removed
[1] = target: Neu5Ac(a2-6)Gal(b1-4)GlcNAc(b1-2)Man(a1-3)Man(b1-4)GlcNAc(b1-4)GlcNAc
How it was run: (§1)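 Negative Z-scores can be read as non-binding. The Z-score is calculated within each array and then averaged across arrays of one protein sequence at different concentrations or buffers and across linkers. Arrays, 3228 in all, were curated from the Consortium for Functional Glycomics database and kept only where the protein sequence was available.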

[2] = target: Neu5Ac(a2-6)Gal(b1-4)GlcNAc(b1-2)Man(a1-3)[Gal(b1-4)GlcNAc(b1-2)Man(a1-6)]Man(b1-4)GlcNAc(b1-4)GlcNAc
How it was run: as §1

[3] = target: Neu5Ac(a2-6)Gal(b1-4)GlcNAc(b1-2)Man(a1-3)[GlcNAc(b1-2)Man(a1-6)]Man(b1-4)GlcNAc(b1-4)GlcNAc
How it was run: as §1

[4] = target: Neu5Ac(a2-6)Gal(b1-4)GlcNAc(b1-2)Man(a1-3)[GlcNAc(b1-2)Man(b1-4)GlcNAc(b1-2)Man(a1-6)]Man(b1-4)GlcNAc(b1-4)GlcNAc
How it was run: as §1

[5] = target: Neu5Ac(a2-6)Gal(b1-4)GlcNAc(b1-2)Man(a1-3)[Man(a1-6)]Man(b1-4)GlcNAc(b1-4)GlcNAc
How it was run: as §1

[6] = target: Neu5Ac(a2-6)Gal(b1-4)GlcNAc(b1-2)Man(a1-3)[Neu5Ac(a2-6)Gal(b1-4)GlcNAc(b1-2)Man(a1-6)]Man(b1-4)GlcNAc(b1-4)GlcNAc
How it was run: as §1

[7] = target: Neu5Ac(a2-6)Gal(b1-4)GlcNAc(b1-2)Man(a1-6)Man(b1-4)GlcNAc(b1-4)GlcNAc
How it was run: as §1

[8] = target: Neu5Ac(a2-6)Gal(b1-4)GlcNAc(b1-2)Man(a1-6)[Gal(b1-4)GlcNAc(b1-2)Man(a1-3)]Man(b1-4)GlcNAc(b1-4)GlcNAc
How it was run: as §1

[9] = target: Neu5Ac(a2-6)Gal(b1-4)GlcNAc(b1-2)Man(a1-6)[GlcNAc(b1-2)Man(a1-3)]Man(b1-4)GlcNAc(b1-4)GlcNAc
How it was run: as §1

[10] = target: Neu5Ac(a2-6)Gal(b1-4)GlcNAc(b1-2)Man(a1-6)[Man(a1-3)]Man(b1-4)GlcNAc(b1-4)GlcNAc
How it was run: as §1

[11] = target: Neu5Ac(a2-6)Gal(b1-4)GlcNAc(b1-3)Gal(b1-3)GlcNAc
How it was run: as §1

[12] = target: Neu5Ac(a2-6)Gal(b1-4)GlcNAc(b1-3)Gal(b1-4)GlcNAc
How it was run: as §1

[13] = target: Neu5Ac(a2-6)Gal(b1-4)GlcNAc(b1-3)Gal(b1-4)GlcNAc(b1-3)Gal(b1-4)GlcNAc
How it was run: as §1

[14] = target: Neu5Ac(a2-6)Gal(b1-4)GlcNAc(b1-3)Gal(b1-4)[Fuc(a1-3)]GlcNAc(b1-3)Gal(b1-4)[Fuc(a1-3)]GlcNAc
How it was run: as §1

[15] = target: Neu5Ac(a2-6)Gal(b1-4)GlcNAc(b1-3)GalNAc
How it was run: as §1

[16] = target: Neu5Ac(a2-6)Gal(b1-4)GlcNAc6S
How it was run: as §1

[17] = target: Neu5Ac(a2-6)GalNAc
How it was run: as §1

[18] = target: Neu5Ac(a2-6)GalNAc(b1-4)GlcNAc
How it was run: as §1

[19] = target: Neu5Ac(a2-6)GlcNAc(b1-4)GlcNAc
How it was run: as §1

[20] = target: Neu5Ac(a2-6)GlcNAc(b1-4)GlcNAc(b1-4)GlcNAc
How it was run: as §1

[21] = target: Neu5Ac(a2-8)Neu5Ac
How it was run: as §1

[22] = target: Neu5Ac(a2-8)Neu5Ac(a2-3)Gal(b1-4)Glc
How it was run: as §1

[23] = target: Neu5Ac(a2-8)Neu5Ac(a2-3)[GalNAc(b1-4)]Gal(b1-4)Glc
How it was run: as §1

[24] = target: Neu5Ac(a2-8)Neu5Ac(a2-8)Neu5Ac
How it was run: as §1

[25] = target: Neu5Ac(a2-8)Neu5Ac(a2-8)Neu5Ac(a2-3)Gal(b1-4)Glc
How it was run: as §1

[26] = target: Neu5Ac(a2-8)Neu5Ac(a2-8)Neu5Ac(a2-3)[GalNAc(b1-4)]Gal(b1-4)Glc
How it was run: as §1

[27] = target: Neu5Ac(a2-8)Neu5Ac(a2-8)Neu5Ac(a2-8)Neu5Ac(a2-3)[GalNAc(b1-4)]Gal(b1-4)Glc
How it was run: as §1

[28] = target: Neu5Ac(b2-6)Gal(b1-4)GlcNAc
How it was run: as §1

[29] = target: Neu5Ac(b2-6)GalNAc
How it was run: as §1

[30] = target: Neu5Ac9Ac(a2-3)Gal(b1-3)GlcNAc
How it was run: as §1

[31] = target: Neu5Ac9Ac(a2-3)Gal(b1-4)GlcNAc
How it was run: as §1

[32] = target: Neu5Ac9Ac(a2-6)Gal(b1-4)GlcNAc
How it was run: as §1

[33] = target: Neu5Gc(a2-3)Gal(b1-3)GlcNAc
How it was run: as §1

[34] = target: Neu5Gc(a2-3)Gal(b1-3)[Fuc(a1-4)]GlcNAc
How it was run: as §1

[35] = target: Neu5Gc(a2-3)Gal(b1-4)Glc
How it was run: as §1

[36] = target: Neu5Gc(a2-3)Gal(b1-4)GlcNAc
How it was run: as §1

[37] = target: Neu5Gc(a2-3)Gal(b1-4)[Fuc(a1-3)]GlcNAc
How it was run: as §1

[38] = target: Neu5Gc(a2-6)Gal(b1-4)GlcNAc
How it was run: as §1

[39] = target: Neu5Gc(a2-6)GalNAc
How it was run: as §1

[40] = target: Neu5Gc(b2-6)Gal(b1-4)GlcNAc
How it was run: as §1

B1: SspB (Streptococcus gordonii), P16952 (protein)
chain: MKNKKEVYGFRKSKVAKTLCGAVLGTALIAFADKAVFADEVTETTSTSTVEVATTGNPATNLPEAQGEMSQVAKESQAKAGSKESALPVEVSSADLDKAVADAKSAGVKVVQDETKDKGTATTATDNAQKQDEIKSDYAKQAEEIKTTTEAYKKEVAAHQAETDKINAENKAADDKYQKDLKSHQEEVEKINTANATAKAEYEAKLAQYQKDLATVKKANEDSQQDYQNKLSAYQTELARVQKANAEAKEAYEKAVKENTAKNEALKVENEAIKQRNETAKATYEAAMKQYEADLAAIKKANEDNDADYQAKLAAYQTELARVQKANAEAKEAYDKAVKENTAKNTAIQAENEAIKQRNETAKATYDAAVKKYEADLAAVKQANATNEADYQAKLAAYQTELARVQKANADAKATYEKAVEDNKAKNAAIKAENEEIKQRNAVAKTDYEAKLAKYEADLAKYKKEFAAYTAALAEAESKKKQDGYLSEPRSQSLNFKSEPNAIRTIDSSVHQYGQQELDALVKSWGISPTNPDRKKSRAYSYFNAINSNNTYAKLVLEKDKPVDVTYTGLKNSSFNGKKISKVVYTYTLKETGFNDGTKMTMFASSDPTVTAWYNDYFTSTNINVKVKFYDEEGQLMNLTGGLVNFSSLNRGNGSGAIDKDAIESVRNFNGRYIPISGSSIKIHENNSAYADSSNAEKSLGARWNTSEWDTTSSPNNWYGAIVGEITQSEISFNMASSKSGNIWFAFNSNINAIGVPTKPVAPTAPTQPMYETEKPLEPAPVAPSYENEPTPPVKTPDQPEPSKPEEPTYETEKPLEPAPVAPSYENEPTPPVKTPDQPEPSKPEEPNYETEKPLEPAPVAPSYENEPTPPVKIPDQPEPSKPEEPTYDPLPTPPLAPTPKQLPTPPVVPTVHFHYSSLLAQPQINKEIKNEDGVDIDRTLVAKQSIVKFELKTEALTAGRPKTTSFVLVDPLPTGYKFDLDATKAASTGFDTTYDEASHTVTFKATDETLATYNADLTKPVETLHPTVVGRVLNDGATYTNNFTLTVNDAYGIKSNVVRVTTPGKPNDPDNPNNNYIKPTKVNKNKEGLNIDGKEVLAGSTNYYELTWDLDQYKGDKSSKEAIQNGFYYVDDYPEEALDVRPDLVKVADEKGNQVSGVSVQQYDSLEAAPKKVQDLLKKANITVKGAFQLFSADNPEEFYKQYVATGTSLVITDPMTVKSEFGKTGGKYENKAYQIDFGNGYATEVVVNNVPKITPKKDVTVSLDPTSENLDGQTVQLYQTFNYRLIGGLIPQNHSEELEDYSFVDDYDQAGDQYTGNYKTFSSLNLTMKDGSVIKAGTDLTSQTTAETDATNGIVTVRFKEDFLQKISLDSPFQAETYLQMRRIAIGTFENTYVNTVNKVAYASNTVRTTTPIPRTPDKPTPIPTPKPKDPDKPETPKEPKVPSPKVEDPSAPIPVSVGKELTTLPKTGTNDATYMPYLGLAALVGFLGLGLAKRKED
glycan array binding signal (z-score) [1]: 0.633
glycan array binding signal (z-score) [2]: 3.2
glycan array binding signal (z-score) [3]: 0.149
glycan array binding signal (z-score) [4]: 0.542
glycan array binding signal (z-score) [5]: 1.36
glycan array binding signal (z-score) [6]: 0.104
glycan array binding signal (z-score) [7]: 1.36
glycan array binding signal (z-score) [8]: -0.88
glycan array binding signal (z-score) [9]: 0.081
glycan array binding signal (z-score) [10]: -0.773
glycan array binding signal (z-score) [11]: -0.01
glycan array binding signal (z-score) [12]: 0.136
glycan array binding signal (z-score) [13]: -0.931
glycan array binding signal (z-score) [14]: -1.2
glycan array binding signal (z-score) [15]: 1.63
glycan array binding signal (z-score) [16]: 0.701
glycan array binding signal (z-score) [17]: -0.019
glycan array binding signal (z-score) [18]: -0.856
glycan array binding signal (z-score) [19]: -1.62
glycan array binding signal (z-score) [20]: 0.146
glycan array binding signal (z-score) [21]: 0.392
glycan array binding signal (z-score) [22]: 2
glycan array binding signal (z-score) [23]: -0.488
glycan array binding signal (z-score) [24]: -0.247
glycan array binding signal (z-score) [25]: 2.25
glycan array binding signal (z-score) [26]: 2.4
glycan array binding signal (z-score) [27]: 0.061
glycan array binding signal (z-score) [28]: -0.067
glycan array binding signal (z-score) [29]: -0.187
glycan array binding signal (z-score) [30]: 0.606
glycan array binding signal (z-score) [31]: 0.771
glycan array binding signal (z-score) [32]: -0.919
glycan array binding signal (z-score) [33]: 0.179
glycan array binding signal (z-score) [34]: 1.09
glycan array binding signal (z-score) [35]: 1.03
glycan array binding signal (z-score) [36]: -0.643
glycan array binding signal (z-score) [37]: -1.54
glycan array binding signal (z-score) [38]: -1.37
glycan array binding signal (z-score) [39]: -0.438
glycan array binding signal (z-score) [40]: -0.303
